# Assay results published in paper PMC6591922.
# Protein sequences, listed by entry. Tags and fused reporters are not part of them.
# UniProt Q15022: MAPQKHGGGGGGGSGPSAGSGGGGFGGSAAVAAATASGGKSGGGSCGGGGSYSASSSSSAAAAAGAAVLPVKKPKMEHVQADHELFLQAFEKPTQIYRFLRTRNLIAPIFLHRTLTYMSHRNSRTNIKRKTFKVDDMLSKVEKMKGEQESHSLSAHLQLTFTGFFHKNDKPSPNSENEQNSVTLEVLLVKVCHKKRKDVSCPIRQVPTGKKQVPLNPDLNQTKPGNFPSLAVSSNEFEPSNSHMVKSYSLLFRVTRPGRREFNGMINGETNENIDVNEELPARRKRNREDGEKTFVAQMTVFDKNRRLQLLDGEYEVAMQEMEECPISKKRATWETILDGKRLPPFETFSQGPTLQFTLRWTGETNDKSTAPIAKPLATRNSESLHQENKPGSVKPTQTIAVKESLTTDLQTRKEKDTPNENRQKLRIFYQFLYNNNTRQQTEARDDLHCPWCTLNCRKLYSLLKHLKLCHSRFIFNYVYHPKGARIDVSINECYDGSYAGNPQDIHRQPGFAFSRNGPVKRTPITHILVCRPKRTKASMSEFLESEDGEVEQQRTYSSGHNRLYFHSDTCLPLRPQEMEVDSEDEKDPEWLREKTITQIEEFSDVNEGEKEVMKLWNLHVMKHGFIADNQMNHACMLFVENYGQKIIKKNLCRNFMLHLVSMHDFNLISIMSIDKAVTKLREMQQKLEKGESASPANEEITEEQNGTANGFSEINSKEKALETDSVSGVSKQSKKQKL
# Results are given in words; binding and its absence hold for the method and conditions named. Binding seen in cells or lysates may run through a third protein. Some entries that bind do so weakly or less than the wild type. For part of these data: Tags and fused reporters may be left off the sequences shown.
# T1: Flag-tagged USP3 (ubiquitin-specific protease 3) (UniProt Q9Y6I4)
# T1 sequence: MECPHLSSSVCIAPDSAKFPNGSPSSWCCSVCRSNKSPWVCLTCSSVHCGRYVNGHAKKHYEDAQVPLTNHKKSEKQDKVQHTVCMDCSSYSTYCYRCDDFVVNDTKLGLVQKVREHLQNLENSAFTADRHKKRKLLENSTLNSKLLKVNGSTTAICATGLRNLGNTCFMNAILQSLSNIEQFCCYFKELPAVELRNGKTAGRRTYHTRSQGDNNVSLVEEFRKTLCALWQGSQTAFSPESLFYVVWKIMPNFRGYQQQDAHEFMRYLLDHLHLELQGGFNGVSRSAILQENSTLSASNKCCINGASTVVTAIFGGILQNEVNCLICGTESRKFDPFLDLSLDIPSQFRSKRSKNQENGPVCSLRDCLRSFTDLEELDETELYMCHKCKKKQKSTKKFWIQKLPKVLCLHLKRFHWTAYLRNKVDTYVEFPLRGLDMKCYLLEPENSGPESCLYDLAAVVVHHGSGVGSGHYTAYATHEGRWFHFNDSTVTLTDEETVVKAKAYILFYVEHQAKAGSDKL
# T2: USP3 (ubiquitin-specific protease 3), endogenous (human (endogenous in gastric cancer cell lines)) (UniProt Q9Y6I4)
# T2 sequence: T1 sequence
# B1: Flag-tagged USP3 (ubiquitin-specific protease 3) (enzyme, UniProt Q9Y6I4 1-520)
# chain: T1 sequence
# Assays:
# [1] = target: T1, Flag-tagged USP3 (ubiquitin-specific protease 3); assay: co-IP; GC cells cotransfected with Flag-tagged USP3 and Myc-tagged SUZ12; immunoprecipitation with anti-Flag or anti-Myc antibody, normal mouse IgG as control, Western blot for the other tag
# [2] = target: T2, USP3 (ubiquitin-specific protease 3), endogenous (human (endogenous in gastric cancer cell lines)); assay: co-IP; endogenous proteins; lysates of GC cells immunoprecipitated with an anti-USP3 antibody or normal rabbit IgG, Western blot with an anti-SUZ12 antibody; called reciprocal in the text
# [3] = target: Myc-tagged SUZ12 (suppressor of zeste 12 protein homolog) (UniProt Q15022); assay: co-IP; GC cells cotransfected with Flag-tagged USP3 and Myc-tagged SUZ12; immunoprecipitation with anti-Flag or anti-Myc antibody, normal mouse IgG as control, Western blot for the other tag
molecule,measurement,setting,value
Myc-tagged SUZ12 (suppressor of zeste 12 protein homolog) (from UniProt Q15022 1-739),binding,[1],binds
"SUZ12 (suppressor of zeste 12 protein homolog), endogenous (from UniProt Q15022 1-739)",binding,[2],binds
B1,binding,[3],binds
